A short description of this data set: Rheological analysis of hydrogel formulations (CGT, onset temperature, max G′). In kind it is physicochemical. The settings on record: compared to the vehicle. As for the experimental part: The development of the initial formulations of the study described herein focused on using the triblock copolymer P1 of Table 1, as a matrix to achieve the desired critical gelation temperature. The first formulation targeted a drug load of 10 mg/mL lidocaine in 2% DMA, 10% Polyethylene Glycol 400 (PEG 400), and 20% P1 (Table 2). PEG 400 was used as a co-solvent to further enhance solubility of the active in aqueous media and to decrease the gelation temperature to be close to but below body temperature. Rheological properties including critical gelation temperature (CGT), onset temperature, and elastic (G′) and viscous (G″) moduli were used in conjunction with visual and IVR experiments to analyze the impact of different formulation component compositions and concentrations on the suitability of the formulation in an extended-release postsurgical pain management indication. […] The effect of the concentrations of PEG 400 and/or the polymer concentration on the measured critical gelation and onset temperatures of the formulations tested with P1 is summarized in Table 2.

Regarding `CCN(CC)CC(=O)Nc1c(C)cccc1C` [lidocaine, 2-(diethylamino)-N-(2,6-dimethylphenyl)acetamide], the “Impact of drug on gelation properties of the formulation” value is given as “did not have a significant impact on gelation properties”.

Values taken from patent US20240148648A1, “SUSTAINED RELEASE THERMOSETTING GELS COMPRISING ANESTHETIC DRUGS AND THE METHODS OF MAKING THE SAME” (Pacira Therapeutics, Inc., priority 2021, published 2024).
